From the supplement of paper PMC3334620
The full ranking holds about 33,000 sequences; the median of “E-score (-0.5 to 0.5)” is about -0.016, and the highest 2% start at about 0.3. This is one part of the list.

What follows are sequences tested against T1, Yer184c (UniProt P39961) (assay: PBM E-score (8-mer binding enrichment) (E-score (-0.5 to 0.5)); higher = stronger / more preferred TF binding). Settings: protein concentration: 100 nM; construct: GST-full length.
T1 sequence: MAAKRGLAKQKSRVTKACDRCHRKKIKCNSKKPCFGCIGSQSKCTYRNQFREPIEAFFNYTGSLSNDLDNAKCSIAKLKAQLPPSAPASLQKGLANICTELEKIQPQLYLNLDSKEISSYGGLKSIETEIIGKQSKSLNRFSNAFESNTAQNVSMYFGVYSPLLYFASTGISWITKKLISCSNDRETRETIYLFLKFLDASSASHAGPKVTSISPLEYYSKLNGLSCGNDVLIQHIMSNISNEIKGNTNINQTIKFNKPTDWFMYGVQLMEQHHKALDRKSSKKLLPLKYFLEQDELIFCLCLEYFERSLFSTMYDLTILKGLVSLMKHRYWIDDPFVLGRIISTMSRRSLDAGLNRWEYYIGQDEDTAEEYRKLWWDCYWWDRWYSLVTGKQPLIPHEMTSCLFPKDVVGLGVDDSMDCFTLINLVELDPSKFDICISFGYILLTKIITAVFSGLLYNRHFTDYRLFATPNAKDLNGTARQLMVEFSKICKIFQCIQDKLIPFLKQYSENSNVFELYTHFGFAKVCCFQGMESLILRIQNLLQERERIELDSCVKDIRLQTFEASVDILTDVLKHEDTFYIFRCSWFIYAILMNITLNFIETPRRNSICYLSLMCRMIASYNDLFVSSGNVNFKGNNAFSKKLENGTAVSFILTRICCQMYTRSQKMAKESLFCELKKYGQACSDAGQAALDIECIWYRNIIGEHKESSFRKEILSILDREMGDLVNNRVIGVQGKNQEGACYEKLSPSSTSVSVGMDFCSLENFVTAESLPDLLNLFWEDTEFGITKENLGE
Outline: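 Yeast transcription factors carrying a GST tag, as full-length proteins or DNA-binding domains, were produced by PURExpress in vitro transcription/translation. About 100-200 nM protein was applied to universal all-10-mer Agilent arrays, double-stranded by primer extension on fresh or once-stripped slides. Bound protein was detected with fluorescent anti-GST, and scans were normalised with masliner. The Universal PBM Analysis Suite gave each ungapped eight-base word, pooled with its reverse complement, an E-score, a modified Wilcoxon-Mann-Whitney statistic.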

Row | Sequence | PBM E-score
1 | CTTGCCAA | 0.0268
2 | TTCAGGAA | 0.0272
3 | AAAGACCA | -0.239
4 | TGGATACA | -0.221
5 | AAAGTAAG | 0.0454
6 | CATCGGGC | -0.109
7 | ACGACTAA | -0.115
8 | GGCGGACC | 0.0558
9 | CCCGTTGA | -0.0292
10 | GCCAGCAA | -0.118
11 | CTAAACAC | -0.0565
12 | AGGGATCG | -0.127
13 | CACCTCAG | -0.236
14 | CAAGGCCA | -0.168
15 | CGTGAGGC | -0.0854
16 | GGCGGGAA | 0.0413
17 | ACGACTAT | -0.0269
18 | CTCATCCC | -0.179
19 | CAGATTGC | -0.0216
20 | ACCGCCCT | -0.201
21 | CATCGATA | 0.00602
22 | CGCCGACG | 0.187

Row | Sequence | PBM E-score
23 | ACACCCCC | -0.313
24 | GTGGGAAC | -0.16
25 | GGCGCCAC | -0.114
26 | CAGCTTCC | -0.127
27 | CACGGTCG | -0.0578
28 | CTGTCTAA | -0.0326
29 | TCTAGGCA | 0.05
30 | TCCAAGCA | -0.256
31 | GATTCCGC | 0.0917
32 | ATCGTAAC | 0.178
33 | ACGGTGGG | -0.226
34 | CGGTACCG | 0.32
35 | GGCTTTTA | -0.0907
36 | AATATGTC | 0.072
37 | GCTGGTCC | -0.0365
38 | CGCGAGGA | -0.0858
39 | AAATAAGC | 0.0752
40 | ACTTGTAA | -0.0878
41 | GCCAACTA | -0.132
42 | ATTTAGTC | 0.133
43 | CGAAAAGC | 0.0252
44 | CCATTCGC | -0.146

Row | Sequence | PBM E-score
45 | TGTCGTAA | -0.163
46 | CCCGTGTC | 0.0588
47 | CAGAGGAA | -0.0556
48 | ATGGCGCC | -0.0304
49 | AGACGGCA | 0.15
50 | CCGATCCG | 0.25
51 | TATGTCAA | 0.21
52 | AATCGCGA | 0.00301
53 | AAGTCGCA | 0.0733
54 | CCATAAGC | -0.181
55 | ATACCTCG | 0.108
56 | CCTATCGC | -0.312
57 | AAGCGGGC | -0.325
58 | AGAGCGCC | 0.0563
59 | AGTACCGA | 0.103
60 | GCCACAAC | 0.0591
61 | CCACAGGC | -0.36
62 | GACTGATC | -0.12
63 | AGCCATCG | -0.189
64 | AAGCCCGC | 0.128
65 | ACGAGCCA | -0.148
66 | GATTGACC | -0.124

Row | Sequence | PBM E-score
67 | GATTGACA | 0.0426
68 | AGGGTCTG | -0.252
69 | AGTCTAAT | -0.018
70 | CAGACCAG | -0.107
71 | CCTGTGCA | -0.152
72 | AGACATTC | -0.0101
73 | CCAAAGAA | 0.106
74 | CAGCACTG | -0.242
75 | GGCAAGGA | 0.147
76 | CCGGTAAA | 0.321
77 | AAGAGAGC | -0.143
78 | ACTCGACC | 0.0322
79 | ATAGATAA | 0.15
80 | CACTGTAG | 0.172
81 | CCTAACGC | -0.00278
82 | AGCTGAAT | -0.0898
83 | CATCAGTA | -0.0984
84 | CACTGTTA | -0.176
85 | CGTTCCTC | 0.0805
86 | AACCGAGG | 0.0141
87 | ACCGCTGC | -0.188
88 | CATTGTAA | -0.0458

A section from the list above, for reference:
Row | Sequence | PBM E-score
23 | ACACCCCC | -0.313
24 | GTGGGAAC | -0.16

Next part

Row | Sequence | PBM E-score
89 | ACGACTCC | -0.102
90 | CATCATGA | -0.0238
91 | AACCGCAG | -0.0887
92 | ATAACTTA | 0.157
93 | CCCCGCCG | -0.0767
94 | GAGTTGTA | 0.143
95 | CATTAACA | 0.0428
96 | CGACTGAG | -0.107
97 | AGTGGAAT | -0.0073
98 | CCACGCAC | 0.0441
99 | ATATGGTC | -0.00957
100 | ATCTGCCA | -0.0702
101 | CTCGCTTA | 0.0271
102 | AAATTGTT | 0.16
103 | ACAGCTGC | -0.0321
104 | ATGATTGA | 0.0273
105 | ATAACCTG | -0.208
106 | GGAGGGCC | -0.308
107 | CTGACCTA | -0.14
108 | ACCACACA | 0.00327
109 | AGCTATGC | -0.239
110 | CAATGGCA | -0.078

An excerpt of these results, in CSV form:
Row,Sequence,PBM E-score
9,CCCGTTGA,-0.0292
10,GCCAGCAA,-0.118
11,CTAAACAC,-0.0565
12,AGGGATCG,-0.127
13,CACCTCAG,-0.236
14,CAAGGCCA,-0.168
15,CGTGAGGC,-0.0854
16,GGCGGGAA,0.0413
17,ACGACTAT,-0.0269
18,CTCATCCC,-0.179
19,CAGATTGC,-0.0216
20,ACCGCCCT,-0.201
21,CATCGATA,0.00602
22,CGCCGACG,0.187
23,ACACCCCC,-0.313
24,GTGGGAAC,-0.16
25,GGCGCCAC,-0.114
26,CAGCTTCC,-0.127
27,CACGGTCG,-0.0578
28,CTGTCTAA,-0.0326
29,TCTAGGCA,0.05
30,TCCAAGCA,-0.256
31,GATTCCGC,0.0917
32,ATCGTAAC,0.178
33,ACGGTGGG,-0.226
34,CGGTACCG,0.32
35,GGCTTTTA,-0.0907
36,AATATGTC,0.072
